This continues a long series; more values of the same kind are listed elsewhere.
Assays:
Assay type in all cases: cell-based
Conditions in all cases: U-87MG ATCC
[1] = Inhibition of RTK/PI3K/AKT/mTOR signaling in human U87 cells assessed as down regulation of CDC25A gene expression at cytotoxic IC50 measured after 48 hrs relative to control
[2] = Inhibition of RTK/PI3K/AKT/mTOR signaling in human U87 cells assessed as up regulation of general transcription factor IIi gene expression at cytotoxic IC50 measured after 48 hrs relative to control
[3] = Inhibition of RTK/PI3K/AKT/mTOR signaling in human U87 cells assessed as down regulation of AHSA1 gene expression at cytotoxic IC50 measured after 48 hrs relative to control
[4] = Inhibition of RTK/PI3K/AKT/mTOR signaling in human U87 cells assessed as down regulation of ZNF720 gene expression at cytotoxic IC50 measured after 48 hrs relative to control
[5] = Inhibition of RTK/PI3K/AKT/mTOR signaling in human U87 cells assessed as up regulation of VDAC1 gene expression at cytotoxic IC50 measured after 48 hrs relative to control
[6] = Inhibition of RTK/PI3K/AKT/mTOR signaling in human U87 cells assessed as down regulation of YAP1 gene expression at cytotoxic IC50 measured after 48 hrs relative to control
[7] = Inhibition of RTK/PI3K/AKT/mTOR signaling in human U87 cells assessed as down regulation of VAMP7 gene expression at cytotoxic IC50 measured after 48 hrs relative to control
[8] = Inhibition of RTK/PI3K/AKT/mTOR signaling in human U87 cells assessed as down regulation of FLNA gene expression at cytotoxic IC50 measured after 48 hrs relative to control
[9] = Inhibition of RTK/PI3K/AKT/mTOR signaling in human U87 cells assessed as up regulation of CD109 gene expression at cytotoxic IC50 measured after 48 hrs relative to control
[10] = Inhibition of RTK/PI3K/AKT/mTOR signaling in human U87 cells assessed as up regulation of RGL2 gene expression at cytotoxic IC50 measured after 48 hrs relative to control
[11] = Inhibition of RTK/PI3K/AKT/mTOR signaling in human U87 cells assessed as down regulation of SCPEP1 gene expression at cytotoxic IC50 measured after 48 hrs relative to control
[12] = Inhibition of RTK/PI3K/AKT/mTOR signaling in human U87 cells assessed as down regulation of GBP2 gene expression at cytotoxic IC50 measured after 48 hrs relative to control
[13] = Inhibition of RTK/PI3K/AKT/mTOR signaling in human U87 cells assessed as down regulation of GNPDA2 gene expression at cytotoxic IC50 measured after 48 hrs relative to control
[14] = Inhibition of RTK/PI3K/AKT/mTOR signaling in human U87 cells assessed as up regulation of elongin BC and polycomb repressive complex 2 associated protein gene expression at cytotoxic IC50 measured after 48 hrs relative to control
[15] = Inhibition of RTK/PI3K/AKT/mTOR signaling in human U87 cells assessed as up regulation of L3MBTL3 gene expression at cytotoxic IC50 measured after 48 hrs relative to control
[16] = Inhibition of RTK/PI3K/AKT/mTOR signaling in human U87 cells assessed as up regulation of aminopeptidase puromycin sensitive gene expression at cytotoxic IC50 measured after 48 hrs relative to control
[17] = Inhibition of RTK/PI3K/AKT/mTOR signaling in human U87 cells assessed as down regulation of BLZF1 gene expression at cytotoxic IC50 measured after 48 hrs relative to control
[18] = Inhibition of RTK/PI3K/AKT/mTOR signaling in human U87 cells assessed as up regulation of phosphoserine phosphatase gene expression at cytotoxic IC50 measured after 48 hrs relative to control
[19] = Inhibition of RTK/PI3K/AKT/mTOR signaling in human U87 cells assessed as down regulation of ATP6V1D gene expression at cytotoxic IC50 measured after 48 hrs relative to control
[20] = Inhibition of RTK/PI3K/AKT/mTOR signaling in human U87 cells assessed as down regulation of PCDHGA10 gene expression at cytotoxic IC50 measured after 48 hrs relative to control
[21] = Inhibition of RTK/PI3K/AKT/mTOR signaling in human U87 cells assessed as up regulation of TCF3 gene expression at cytotoxic IC50 measured after 48 hrs relative to control
[22] = Inhibition of RTK/PI3K/AKT/mTOR signaling in human U87 cells assessed as down regulation of PSMC5 gene expression at cytotoxic IC50 measured after 48 hrs relative to control
[23] = Inhibition of RTK/PI3K/AKT/mTOR signaling in human U87 cells assessed as up regulation of RNF213 gene expression at cytotoxic IC50 measured after 48 hrs relative to control
[24] = Inhibition of RTK/PI3K/AKT/mTOR signaling in human U87 cells assessed as down regulation of KCTD5 gene expression at cytotoxic IC50 measured after 48 hrs relative to control
[25] = Inhibition of RTK/PI3K/AKT/mTOR signaling in human U87 cells assessed as up regulation of four jointed box 1 gene expression at cytotoxic IC50 measured after 48 hrs relative to control
[26] = Inhibition of RTK/PI3K/AKT/mTOR signaling in human U87 cells assessed as down regulation of CKB gene expression at cytotoxic IC50 measured after 48 hrs relative to control
[27] = Inhibition of RTK/PI3K/AKT/mTOR signaling in human U87 cells assessed as up regulation of prolyl 3-hydroxylase family member 4 (non-enzymatic) gene expression at cytotoxic IC50 measured after 48 hrs relative to control
[28] = Inhibition of RTK/PI3K/AKT/mTOR signaling in human U87 cells assessed as down regulation of GTF2A1 gene expression at cytotoxic IC50 measured after 48 hrs relative to control
[29] = Inhibition of RTK/PI3K/AKT/mTOR signaling in human U87 cells assessed as down regulation of AKAP13 gene expression at cytotoxic IC50 measured after 48 hrs relative to control
[30] = Inhibition of RTK/PI3K/AKT/mTOR signaling in human U87 cells assessed as down regulation of BACH1 gene expression at cytotoxic IC50 measured after 48 hrs relative to control
[31] = Inhibition of RTK/PI3K/AKT/mTOR signaling in human U87 cells assessed as up regulation of SERBP1 gene expression at cytotoxic IC50 measured after 48 hrs relative to control
[32] = Inhibition of RTK/PI3K/AKT/mTOR signaling in human U87 cells assessed as down regulation of HMGCS1 gene expression at cytotoxic IC50 measured after 48 hrs relative to control

With CC(=O)C(=NNc1ccccc1C#N)C(C)=O the log2FC [1] was -1.87, the log2FC [2] was 1.14 and the log2FC [3] was -0.989. The log2FC [4] was -1.27, the log2FC [5] was 0.573 and the log2FC [6] was -0.585. For the same molecule, the log2FC [7] was -0.725, the log2FC [8] was -0.589 and the log2FC [9] was 0.57. The log2FC [10] was 0.632, the log2FC [11] was -0.594 and the log2FC [12] was -3.54. The log2FC [13] was -0.702, the log2FC [14] was 1.2 and the log2FC [15] was 2.11. It also gave a log2FC [16] of 0.772, a log2FC [17] of -0.928 and a log2FC [18] of 1.14. It also gave a log2FC [19] of -1.1, a log2FC [20] of -1.05 and a log2FC [21] of 0.578. The log2FC [22] was -0.605, the log2FC [23] was 0.518 and the log2FC [24] was -0.755. The log2FC [25] was 1.43, the log2FC [26] was -0.855 and the log2FC [27] was 1.07. It also gave a log2FC [28] of -0.663, a log2FC [29] of -0.656 and a log2FC [30] of -0.871. The log2FC [31] was 0.462 and the log2FC [32] was -1.14.
